PubChem BioAssay AID1259254, NCATS | 2017
The whole screen tested about 59,000 reagents; shown is an unselected part. Of all reagents, about 1,550 (2.6%) were called active. 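G2 share is only a proxy for re-replication; each gene was hit by three separate siRNAs, and active genes were retested.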 A number with no mark means an inactive call. Not all columns of the deposit are shown. Not given: the amount of reagent.

- Screen: 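Gene knock-downs that lead to re-replication, shown by excess G2 DNA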 (primary screen)
- Cell system: human HCT116 colorectal cancer cells
- Knock-down reagent: single siRNA against human genes
- Time to read-out: 3 days
- Measurement: 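Nuclei stained with Hoechst and imaged; cell-cycle phase assigned by DNA content; G2 share scaled per plate, non-targeting siRNA 0%, GMNN siRNA 100%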
- Reading the numbers: G2 robust z-score and G2 cells, % of GMNN control: higher = more G2 cells, more excess DNA replication
- Call rule: 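An siRNA counts as active if its G2 robust z-score lies at least 5 MADs above the screen median; here such calls match roughly 38% of GMNN control or more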

gene	PubChem SID	G2 robust z-score	G2 cells, % of GMNN control
CREBZF (GeneID 58487)	SID160731629	0.304	5.1
CREBZF (GeneID 58487)	SID160746823	-1.12	-4.89
CREBZF (GeneID 58487)	SID160746824	2.36	19.6
PHPT1 (GeneID 29085)	SID160739024	4.13	32
PHPT1 (GeneID 29085)	SID160739025	1.52	13.7
PHPT1 (GeneID 29085)	SID160739026	-0.594	-1.21
GSPT1 (GeneID 2935)	SID160774633	0.149	4.02
GSPT1 (GeneID 2935)	SID160774634	1.8	15.6
GSPT1 (GeneID 2935)	SID160774635	6.81 (active)	50.9
IFI27L1 (GeneID 122509)	SID160755976	0.0123	3.05
IFI27L1 (GeneID 122509)	SID160755977	5.5 (active)	41.7
IFI27L1 (GeneID 122509)	SID160755978	-0.97	-3.86
SALL1 (GeneID 6299)	SID160716335	0.302	5.09
SALL1 (GeneID 6299)	SID160716336	0.36	5.5
SALL1 (GeneID 6299)	SID160716337	3.11	24.8
PISD (GeneID 23761)	SID160736846	-1.29	-6.12
PISD (GeneID 23761)	SID160736847	-0.991	-4.01
PISD (GeneID 23761)	SID160736848	-0.204	1.53
IKZF4 (GeneID 64375)	SID160747691	0.46	6.21
IKZF4 (GeneID 64375)	SID160747692	-0.687	-1.87
IKZF4 (GeneID 64375)	SID160747693	-0.129	2.06
LGALS2 (GeneID 3957)	SID160723906	-0.898	-3.35
LGALS2 (GeneID 3957)	SID160723907	0.705	7.93
LGALS2 (GeneID 3957)	SID160776582	3.28	26
XAGE2 (GeneID 9502)	SID160770963	-0.289	0.937
XAGE2 (GeneID 9502)	SID160770964	-0.568	-1.03
XAGE2 (GeneID 9502)	SID160770965	-0.49	-0.48
BAGE4 (GeneID 85317)	SID160724661	1.12	10.9
BAGE4 (GeneID 85317)	SID160724662	0.637	7.45
BAGE4 (GeneID 85317)	SID160735145	0.382	5.65
ZNF574 (GeneID 64763)	SID160747925	0.0236	3.13
ZNF574 (GeneID 64763)	SID160747926	4.11	31.9
ZNF574 (GeneID 64763)	SID160747927	1.56	14
FGFR1OP2 (GeneID 26127)	SID160737663	2.62	21.4
FGFR1OP2 (GeneID 26127)	SID160737664	-0.158	1.85
FGFR1OP2 (GeneID 26127)	SID160737665	0.422	5.94
SMOC1 (GeneID 64093)	SID160747437	0.0987	3.66
SMOC1 (GeneID 64093)	SID160747438	-1.14	-5.04
SMOC1 (GeneID 64093)	SID160747439	0.441	6.07
S100A10 (GeneID 6281)	SID160716299	0.548	6.82
S100A10 (GeneID 6281)	SID160716300	-0.814	-2.76
S100A10 (GeneID 6281)	SID160716301	1.54	13.8
LOC400940 (GeneID 400940)	SID160767093	-0.0153	2.86
LOC400940 (GeneID 400940)	SID160767094	1.31	12.2
LOC400940 (GeneID 400940)	SID160767095	0.0578	3.37
PEG10 (GeneID 23089)	SID160735419	-0.208	1.5
PEG10 (GeneID 23089)	SID160735420	-1.05	-4.44
PEG10 (GeneID 23089)	SID160735421	0.301	5.09

Limited to “G2 robust z-score”, for 9 of the entries above:
XAGE2 (GeneID 9502) [SID160770964] = -0.568
XAGE2 (GeneID 9502) [SID160770965] = -0.49
BAGE4 (GeneID 85317) [SID160724661] = 1.12
BAGE4 (GeneID 85317) [SID160724662] = 0.637
BAGE4 (GeneID 85317) [SID160735145] = 0.382
ZNF574 (GeneID 64763) [SID160747925] = 0.0236
ZNF574 (GeneID 64763) [SID160747926] = 4.11
ZNF574 (GeneID 64763) [SID160747927] = 1.56
FGFR1OP2 (GeneID 26127) [SID160737663] = 2.62

More results follow.
gene	PubChem SID	G2 robust z-score	G2 cells, % of GMNN control
CLPSL1 (GeneID 340204)	SID160725094	0.114	3.77
CLPSL1 (GeneID 340204)	SID160764382	5.67 (active)	42.9
CLPSL1 (GeneID 340204)	SID160764383	-0.226	1.38
SMU1 (GeneID 55234)	SID160743304	0.451	6.14
SMU1 (GeneID 55234)	SID160743305	0.868	9.07
SMU1 (GeneID 55234)	SID160743306	0.613	7.28
JCADP1 (GeneID 729056)	SID160726923	-0.0193	2.83
JCADP1 (GeneID 729056)	SID160726924	-0.985	-3.96
JCADP1 (GeneID 729056)	SID160734466	-0.473	-0.36
PYGO2 (GeneID 90780)	SID160753802	0.918	9.42
PYGO2 (GeneID 90780)	SID160753803	0.828	8.79
PYGO2 (GeneID 90780)	SID160753805	1.31	12.2
DNER (GeneID 92737)	SID160754357	-0.539	-0.822
DNER (GeneID 92737)	SID160754358	-0.435	-0.0898
DNER (GeneID 92737)	SID160754359	0.518	6.61
ZNF596 (GeneID 169270)	SID160760341	0.0905	3.6
ZNF596 (GeneID 169270)	SID160760342	3.01	24.1
ZNF596 (GeneID 169270)	SID160760343	4.63	35.6
APOB (GeneID 338)	SID160718708	-0.414	0.0514
APOB (GeneID 338)	SID160718719	-1.02	-4.2
APOB (GeneID 338)	SID160718730	-0.36	0.436
OR51A4 (GeneID 401666)	SID160767360	-0.263	1.12
OR51A4 (GeneID 401666)	SID160767361	5.41 (active)	41
OR51A4 (GeneID 401666)	SID160767362	0.889	9.22
TXLNGY (GeneID 246126)	SID160752544	-0.794	-2.62
TXLNGY (GeneID 246126)	SID160752545	0.858	9
TXLNGY (GeneID 246126)	SID160752546	1.2	11.4
TXLNGY (GeneID 246126)	SID160761991	-0.912	-3.45
TXLNGY (GeneID 246126)	SID160761992	0.433	6.01
TXLNGY (GeneID 246126)	SID160761994	4.12	31.9
AKAP7 (GeneID 9465)	SID160722276	-0.321	0.708
AKAP7 (GeneID 9465)	SID160722277	-1.47	-7.37
AKAP7 (GeneID 9465)	SID160732184	0.232	4.6
ZBTB22 (GeneID 9278)	SID160721869	-0.346	0.536
ZBTB22 (GeneID 9278)	SID160721870	3.25	25.8
ZBTB22 (GeneID 9278)	SID160721871	1.66	14.7
HDLBP (GeneID 3069)	SID160774903	-1.31	-6.25
HDLBP (GeneID 3069)	SID160774904	0.933	9.53
HDLBP (GeneID 3069)	SID160774905	-0.0397	2.69
